The results in this text go back to patent US20170355765A1 (published 2017).

By UniProt entry, the sequences of proteins in these tests, tags left out. Residues count along the entry.
UniProt Q9CZ52, residues 31-319: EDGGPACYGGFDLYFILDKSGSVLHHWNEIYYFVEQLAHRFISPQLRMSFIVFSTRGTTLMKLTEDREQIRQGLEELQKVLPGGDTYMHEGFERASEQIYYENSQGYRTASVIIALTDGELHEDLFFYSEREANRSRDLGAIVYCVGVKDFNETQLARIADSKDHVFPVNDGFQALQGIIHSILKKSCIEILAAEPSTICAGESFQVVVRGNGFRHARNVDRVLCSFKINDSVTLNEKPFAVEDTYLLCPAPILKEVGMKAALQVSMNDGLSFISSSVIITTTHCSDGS

No constants are given. Whether binding was seen depends on the method and setting. Some binding calls cover weakened binding; strength is not graded here.

The test deals with mouse TEM8 (mouse) (UniProt Q9CZ52). The experiment in a line: screening assays, IgG1 format.

B1: m863 antibody in human IgG1 format (antibody, V domains shown)
VH: EVQLVETGAEVKKPGASVKVSCKASGYTFTGYYMHWVRQAPGQGLEWMGWINPTSGSTNYAQKFQGRVTMTRDTSISTAYMELSGLRSDDTAVYYCVRDPGSPKWLAFDPWGQGTLVTVSS
VL: DIQLTQSPSSLSASVGDRVTITCRASRAISRYLNWYQQKPGKAPKLLIYAASSLQSGVSSRFSGSGSGTEFTLTISSLQPEDFATYFCQQTYSPPITFGQGTRLEIKR
Take B1: the binding result is recorded as “binds”.
